At least one compound was matched to its structure with a doubt left.
System: 3D human trabecular meshwork (HTM) cells co-cultured with human Schlemms' canal (HSC) cells
Test: Outflow facility in bioengineered 3D HTM/HSC ex vivo human eye tissue model, ANGPTL7 or dexamethasone
Type: cell-based
Conditions: 3D-HTM donors; 500 nM Dexamethasone or 50 ng/mL ANGPTL7 vs vehicle (DMSO)
Description: Experiments were conducted to determine the effects of ANGPTL7 on outflow facility in a bioengineered ex vivo human eye tissue model. Glauconix developed a proprietary technology allowing multi-layer growth of bioengineered 3D human trabecular meshwork (HTM) cells co-cultured with human Schlemms' canal (HSC) cells, thereby mimicking the architecture of the tissues responsible for pressure build-up in the human eye (FIG. 3A). This allows endpoint analyses relevant to IOP-modulation. This scaffolding of cells is used to compare treatment effects of vehicle (DMSO), dexamethasone (a steroid known to elevate IOP), and human ANGPTL7 protein on outflow facility.
Briefly, HTM cells were thawed and allowed to grow for about 7 days (media changes every 2 days). The HTM cells were seeded onto scaffolds and HSC cells were thawed on the same day; the HTM cells were allowed to grow for 7 days on the scaffolds with media changes every 2 days. HSCs were co-cultured on the back side of the HTM scaffolds and grown for 10-12 days with media changes every 2 days. […]
Samples were analyzed using One-way ANOVA (GraphPad Prism Software, Inc., La Jolla, CA), *P<0.05, **P<0.0.01, ***P<0.001 N=4 per treatment group. […] […]

C[C@@H]1C[C@H]2[C@@H]3CCC4=CC(=O)C=C[C@]4(C)[C@@]3(F)[C@@H](O)C[C@]2(C)[C@@]1(O)C(=O)CO [dexamethasone, reference compound]
outflow facility: significantly decreased outflow facility

— patent US20250296996A1, “ANGIOPOIETIN-RELATED PROTEIN 7-SPECIFIC ANTIBODIES AND USES THEREOF” (Broadwing Bio, Inc., priority 2022, published 2025)
